Assay results taken from the supplement of paper PMC10849652.
Some of the results follow.

The chains behind the UniProt entries cited, without tags or fusion partners. Where a name states a change or a piece, a line headed by the entry shows the natural chain unless it says otherwise.
UniProt O95149, whole entry, looked up: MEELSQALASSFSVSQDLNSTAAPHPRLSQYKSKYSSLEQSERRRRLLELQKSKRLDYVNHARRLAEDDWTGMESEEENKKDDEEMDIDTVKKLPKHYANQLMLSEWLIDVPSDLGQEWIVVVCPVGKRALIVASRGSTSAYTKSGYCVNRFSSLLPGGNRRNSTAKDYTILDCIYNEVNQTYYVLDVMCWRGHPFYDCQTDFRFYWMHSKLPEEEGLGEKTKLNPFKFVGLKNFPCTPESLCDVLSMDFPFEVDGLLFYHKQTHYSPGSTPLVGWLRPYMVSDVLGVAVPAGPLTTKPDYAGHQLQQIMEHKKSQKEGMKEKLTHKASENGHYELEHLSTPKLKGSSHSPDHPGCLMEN
UniProt O95721: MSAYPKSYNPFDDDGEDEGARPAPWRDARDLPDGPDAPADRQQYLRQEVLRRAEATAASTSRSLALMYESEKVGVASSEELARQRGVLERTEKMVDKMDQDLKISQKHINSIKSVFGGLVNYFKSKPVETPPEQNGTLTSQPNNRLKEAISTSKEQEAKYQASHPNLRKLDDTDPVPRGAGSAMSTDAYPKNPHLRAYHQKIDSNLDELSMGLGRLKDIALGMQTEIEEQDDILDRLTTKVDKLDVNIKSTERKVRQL
UniProt O95347, whole entry, looked up: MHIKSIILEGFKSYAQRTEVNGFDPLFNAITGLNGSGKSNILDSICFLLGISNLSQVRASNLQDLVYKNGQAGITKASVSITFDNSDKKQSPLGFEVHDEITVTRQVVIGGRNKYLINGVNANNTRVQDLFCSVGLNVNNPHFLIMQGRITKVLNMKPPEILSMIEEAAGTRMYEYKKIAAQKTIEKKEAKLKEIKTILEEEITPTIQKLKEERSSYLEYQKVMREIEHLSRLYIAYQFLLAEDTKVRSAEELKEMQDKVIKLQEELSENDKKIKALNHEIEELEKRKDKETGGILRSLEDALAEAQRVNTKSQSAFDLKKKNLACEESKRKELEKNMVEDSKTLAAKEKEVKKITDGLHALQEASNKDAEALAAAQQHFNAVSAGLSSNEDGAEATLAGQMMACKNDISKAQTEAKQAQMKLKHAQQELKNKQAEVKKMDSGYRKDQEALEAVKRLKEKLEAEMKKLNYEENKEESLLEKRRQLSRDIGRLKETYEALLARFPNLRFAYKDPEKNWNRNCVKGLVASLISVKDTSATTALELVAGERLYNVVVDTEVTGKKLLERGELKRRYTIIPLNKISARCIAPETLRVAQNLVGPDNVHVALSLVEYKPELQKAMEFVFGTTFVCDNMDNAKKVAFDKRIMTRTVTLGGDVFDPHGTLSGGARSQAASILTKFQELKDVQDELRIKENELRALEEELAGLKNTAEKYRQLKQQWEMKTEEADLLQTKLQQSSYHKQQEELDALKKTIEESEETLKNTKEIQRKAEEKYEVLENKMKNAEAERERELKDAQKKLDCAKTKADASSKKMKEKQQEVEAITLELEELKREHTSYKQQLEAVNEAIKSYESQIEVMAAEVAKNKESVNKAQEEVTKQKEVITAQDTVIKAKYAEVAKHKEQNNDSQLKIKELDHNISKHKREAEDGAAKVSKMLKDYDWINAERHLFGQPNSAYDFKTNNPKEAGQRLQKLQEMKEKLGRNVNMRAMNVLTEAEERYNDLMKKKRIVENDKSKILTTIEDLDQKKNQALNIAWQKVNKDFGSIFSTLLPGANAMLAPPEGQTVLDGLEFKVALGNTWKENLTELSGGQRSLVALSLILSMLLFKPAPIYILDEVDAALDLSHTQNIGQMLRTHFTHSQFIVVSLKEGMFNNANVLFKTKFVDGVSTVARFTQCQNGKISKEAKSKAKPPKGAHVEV
UniProt P62306, whole entry, looked up: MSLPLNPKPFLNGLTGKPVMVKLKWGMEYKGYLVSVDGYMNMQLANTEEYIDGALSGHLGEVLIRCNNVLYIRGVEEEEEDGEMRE
UniProt P57768: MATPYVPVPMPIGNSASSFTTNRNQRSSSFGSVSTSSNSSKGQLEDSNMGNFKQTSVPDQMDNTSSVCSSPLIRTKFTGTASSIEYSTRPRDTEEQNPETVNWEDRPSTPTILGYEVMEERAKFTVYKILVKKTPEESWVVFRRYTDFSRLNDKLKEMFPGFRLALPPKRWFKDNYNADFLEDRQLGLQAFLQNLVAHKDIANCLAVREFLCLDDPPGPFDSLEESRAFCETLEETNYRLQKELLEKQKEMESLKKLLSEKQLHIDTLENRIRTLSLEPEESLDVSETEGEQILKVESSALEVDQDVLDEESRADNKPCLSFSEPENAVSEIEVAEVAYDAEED
UniProt Q96DI7: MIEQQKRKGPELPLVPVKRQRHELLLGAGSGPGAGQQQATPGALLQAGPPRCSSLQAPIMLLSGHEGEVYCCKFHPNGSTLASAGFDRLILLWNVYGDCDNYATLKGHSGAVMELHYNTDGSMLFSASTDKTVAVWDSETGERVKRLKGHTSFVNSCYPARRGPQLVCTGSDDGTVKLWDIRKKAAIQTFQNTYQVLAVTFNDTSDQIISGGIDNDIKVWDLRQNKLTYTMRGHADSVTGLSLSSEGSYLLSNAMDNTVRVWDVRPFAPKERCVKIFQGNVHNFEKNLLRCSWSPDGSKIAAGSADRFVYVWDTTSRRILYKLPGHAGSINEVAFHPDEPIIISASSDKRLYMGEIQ
UniProt Q16637, whole entry, looked up: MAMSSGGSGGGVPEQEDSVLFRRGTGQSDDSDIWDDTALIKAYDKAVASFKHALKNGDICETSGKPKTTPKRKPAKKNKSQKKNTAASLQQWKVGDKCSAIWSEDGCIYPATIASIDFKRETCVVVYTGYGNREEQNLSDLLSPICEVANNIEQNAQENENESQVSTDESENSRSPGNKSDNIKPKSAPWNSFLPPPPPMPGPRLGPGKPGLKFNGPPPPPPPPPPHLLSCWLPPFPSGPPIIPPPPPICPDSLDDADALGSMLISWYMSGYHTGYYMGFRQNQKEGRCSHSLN
UniProt Q9UPR3: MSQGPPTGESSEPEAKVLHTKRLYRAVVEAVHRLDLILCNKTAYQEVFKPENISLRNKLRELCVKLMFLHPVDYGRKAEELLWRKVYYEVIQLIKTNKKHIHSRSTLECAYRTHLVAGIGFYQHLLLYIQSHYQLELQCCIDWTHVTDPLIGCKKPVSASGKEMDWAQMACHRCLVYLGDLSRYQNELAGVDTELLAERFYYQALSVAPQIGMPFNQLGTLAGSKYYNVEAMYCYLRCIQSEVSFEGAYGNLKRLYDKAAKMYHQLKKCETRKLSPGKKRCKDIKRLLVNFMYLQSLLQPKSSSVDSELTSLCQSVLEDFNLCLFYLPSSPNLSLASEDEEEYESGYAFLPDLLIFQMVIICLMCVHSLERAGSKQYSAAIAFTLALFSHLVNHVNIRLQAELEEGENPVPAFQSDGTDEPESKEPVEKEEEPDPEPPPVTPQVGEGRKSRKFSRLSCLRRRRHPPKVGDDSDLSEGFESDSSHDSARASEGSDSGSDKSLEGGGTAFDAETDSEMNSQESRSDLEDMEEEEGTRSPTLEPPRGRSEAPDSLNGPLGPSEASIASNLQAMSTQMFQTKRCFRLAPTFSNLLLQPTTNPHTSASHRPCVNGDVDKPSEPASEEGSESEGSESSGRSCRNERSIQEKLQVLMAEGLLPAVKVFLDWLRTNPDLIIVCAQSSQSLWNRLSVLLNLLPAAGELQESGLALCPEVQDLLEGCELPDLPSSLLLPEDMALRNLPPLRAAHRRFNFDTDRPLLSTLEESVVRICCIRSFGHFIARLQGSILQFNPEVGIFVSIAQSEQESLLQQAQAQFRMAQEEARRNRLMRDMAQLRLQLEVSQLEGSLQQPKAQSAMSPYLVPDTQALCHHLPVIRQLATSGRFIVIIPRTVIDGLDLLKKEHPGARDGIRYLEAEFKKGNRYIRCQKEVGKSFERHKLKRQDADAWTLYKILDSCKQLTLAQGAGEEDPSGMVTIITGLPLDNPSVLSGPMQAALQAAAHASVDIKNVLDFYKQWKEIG
UniProt P00441, whole entry, looked up: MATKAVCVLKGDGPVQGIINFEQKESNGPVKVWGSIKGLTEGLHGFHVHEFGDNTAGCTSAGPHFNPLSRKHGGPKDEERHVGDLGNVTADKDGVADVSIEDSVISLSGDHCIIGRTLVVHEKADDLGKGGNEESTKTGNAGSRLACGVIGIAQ
UniProt Q92540: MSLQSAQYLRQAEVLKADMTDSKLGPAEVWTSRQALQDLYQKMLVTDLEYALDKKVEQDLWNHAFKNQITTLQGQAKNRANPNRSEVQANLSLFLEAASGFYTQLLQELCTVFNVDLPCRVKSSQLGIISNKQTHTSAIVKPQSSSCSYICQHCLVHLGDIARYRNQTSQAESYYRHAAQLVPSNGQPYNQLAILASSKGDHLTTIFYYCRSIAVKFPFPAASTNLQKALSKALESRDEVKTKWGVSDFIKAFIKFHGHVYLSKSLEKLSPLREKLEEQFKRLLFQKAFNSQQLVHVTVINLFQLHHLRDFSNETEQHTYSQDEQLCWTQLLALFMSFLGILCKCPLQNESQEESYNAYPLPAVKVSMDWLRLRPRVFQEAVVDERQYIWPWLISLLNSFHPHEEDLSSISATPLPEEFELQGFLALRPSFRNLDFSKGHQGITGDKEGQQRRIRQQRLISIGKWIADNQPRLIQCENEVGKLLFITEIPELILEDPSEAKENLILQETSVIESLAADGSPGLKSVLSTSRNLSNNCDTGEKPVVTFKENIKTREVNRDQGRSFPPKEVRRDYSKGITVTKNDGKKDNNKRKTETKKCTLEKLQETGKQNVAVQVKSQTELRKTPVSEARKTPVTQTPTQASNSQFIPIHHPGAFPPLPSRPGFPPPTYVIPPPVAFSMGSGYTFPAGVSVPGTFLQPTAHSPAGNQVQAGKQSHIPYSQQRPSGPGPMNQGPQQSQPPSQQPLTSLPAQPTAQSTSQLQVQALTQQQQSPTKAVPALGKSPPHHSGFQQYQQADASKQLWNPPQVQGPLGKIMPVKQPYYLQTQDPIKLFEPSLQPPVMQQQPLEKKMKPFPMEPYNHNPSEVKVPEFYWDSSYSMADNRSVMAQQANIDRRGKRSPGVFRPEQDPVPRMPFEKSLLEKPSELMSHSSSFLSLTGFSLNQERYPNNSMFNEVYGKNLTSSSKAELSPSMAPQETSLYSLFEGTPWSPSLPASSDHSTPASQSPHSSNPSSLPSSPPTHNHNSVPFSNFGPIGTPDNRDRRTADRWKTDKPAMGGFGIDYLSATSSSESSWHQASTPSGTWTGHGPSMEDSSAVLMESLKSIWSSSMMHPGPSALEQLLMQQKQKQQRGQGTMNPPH
UniProt P09234, whole entry, looked up: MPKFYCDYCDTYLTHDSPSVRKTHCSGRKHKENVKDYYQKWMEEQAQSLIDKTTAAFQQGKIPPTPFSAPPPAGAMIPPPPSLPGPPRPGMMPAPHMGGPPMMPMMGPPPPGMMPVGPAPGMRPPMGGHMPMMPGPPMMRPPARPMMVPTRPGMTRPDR
UniProt Q8N5G0: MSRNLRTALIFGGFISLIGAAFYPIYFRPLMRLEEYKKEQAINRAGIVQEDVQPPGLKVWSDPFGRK
UniProt P62304, whole entry, looked up: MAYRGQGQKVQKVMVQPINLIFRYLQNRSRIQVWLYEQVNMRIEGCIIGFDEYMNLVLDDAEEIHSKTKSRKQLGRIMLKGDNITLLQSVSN
UniProt O00161: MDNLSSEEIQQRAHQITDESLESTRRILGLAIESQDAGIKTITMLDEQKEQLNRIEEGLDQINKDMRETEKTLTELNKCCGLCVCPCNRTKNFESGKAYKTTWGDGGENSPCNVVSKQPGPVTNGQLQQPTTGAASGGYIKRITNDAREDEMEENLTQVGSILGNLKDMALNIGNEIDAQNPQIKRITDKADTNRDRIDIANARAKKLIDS
UniProt P08579, whole entry, looked up: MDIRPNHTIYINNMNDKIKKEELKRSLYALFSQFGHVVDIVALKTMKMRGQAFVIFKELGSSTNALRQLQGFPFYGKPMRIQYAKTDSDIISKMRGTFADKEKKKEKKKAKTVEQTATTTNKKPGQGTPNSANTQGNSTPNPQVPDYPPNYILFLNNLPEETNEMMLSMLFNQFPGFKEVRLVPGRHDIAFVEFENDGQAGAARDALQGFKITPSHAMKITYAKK
UniProt Q12824, whole entry, looked up: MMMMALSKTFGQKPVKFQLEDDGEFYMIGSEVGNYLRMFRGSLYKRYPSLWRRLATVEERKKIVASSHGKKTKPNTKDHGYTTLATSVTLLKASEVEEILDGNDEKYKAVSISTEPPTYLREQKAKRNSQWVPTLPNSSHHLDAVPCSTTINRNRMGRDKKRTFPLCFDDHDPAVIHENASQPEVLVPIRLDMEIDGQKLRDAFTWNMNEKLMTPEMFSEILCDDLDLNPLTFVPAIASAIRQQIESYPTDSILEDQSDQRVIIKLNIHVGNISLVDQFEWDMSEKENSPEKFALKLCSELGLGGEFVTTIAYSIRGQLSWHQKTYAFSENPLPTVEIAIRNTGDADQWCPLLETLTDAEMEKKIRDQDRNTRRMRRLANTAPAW

How the values were obtained:
Experiment in all cases: log2 fold change, soluble protein after heating vs DMSO (PISA); higher = thermal stabilisation; K562 lysate, 10 uM; active = over 0.2 and 3.5 SD of the protein, either way, in both replicates (recomputed)
erlotinib = compound: C#Cc1cccc(Nc2ncnc3cc(OCCOC)c(OCCOC)cc23)c1 [erlotinib]
Summary of the method: (§1)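 Log-two fold change in thermal stability relative to solvent controls is reported from duplicates. For each sample, crude K562 extract from dounce-homogenised pellets in PBS pH 7.4 with 1 mM MgCl2, at 1 mg/mL protein, was treated with 10 μM compound for 30 min. Aliquots heated for 3 min across 48°C-58°C were pooled, brought to 0.5% NP-40 at 4°C and cleared at 21,000xg for 90 min. The supernatant was quantified by TMTpro 16plex LC-MS/MS with channel sums equalised.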

[1] = compound: C/C(=N\NC(=O)C1=CC(=CC=C1)S(=O)(=O)N2CCOCC2)/C3=C(C=CC(=C3)Cl)O
Summary of the method: as §1

[2] = compound: C1=CC(=CC=C1C2=NC3=C(N2)C=C(C=C3)C(=O)N)OC4=CC=C(C=C4)Cl
Summary of the method: as §1

[3] = compound: C1=CC2=C(C=CC(=C2)/C=C\3/C(=O)NC(=NCC4=CC=CS4)S3)N=C1
Summary of the method: as §1

[4] = compound: C1=CC2=NC=CN=C2C=C1/C=C/3\C(=O)NC(=O)S3
Summary of the method: as §1

[5] = compound: C1=CC=C(C=C1)C2=NC(=C(N2)C3=CC=NC=C3)C4=CC(=C(C=C4)Cl)O
Summary of the method: as §1

[6] = compound: C1=CC=C2C(=C1)C3=NNC4=CC=CC(=C43)C2=O
Summary of the method: as §1

[7] = compound: C1CCN(C1)C(=O)NC2=CC=CC(=C2)NC3=NC=C(C(=N3)NCCC4=CN=CN4)Br
Summary of the method: as §1

[8] = compound: C1CN(CCC1(CC2=CC=C(C=C2)Cl)N)C3=NC=NC4=C3C=CN4
Summary of the method: as §1

IRAK-1-4 Inhibitor I = compound: C1COCCN1CCN2C3=CC=CC=C3N=C2NC(=O)C4=CC(=CC=C4)[N+](=O)[O-] [IRAK-1-4 Inhibitor I]
Summary of the method: as §1

Measured: log2 fold change

SNW1 (UniProt Q13573)
inactive: erlotinib -0.038 | [1] -0.017 | [2] 0.026 | [3] -0.018 | [4] -0.033 | [5] -0.006 | [6] -0.004 | [7] 0.022 | [8] -0.021 | IRAK-1-4 Inhibitor I 0

SNX2 isoform 2 (UniProt O60749)
inactive: erlotinib 0.132 | [1] -0.065 | [2] 0.059 | [3] 0.04 | [4] 0.01 | [5] 0 | [6] -0.114 | [7] -0.108 | [8] 0.245 | IRAK-1-4 Inhibitor I -0.043

SNUPN (UniProt O95149)
inactive: erlotinib -0.048 | [1] -0.116 | [2] 0.3 | [3] 0.024 | [4] 0.035 | [5] 0.069 | [6] 0.009 | [7] 0.02 | [8] -0.039 | IRAK-1-4 Inhibitor I -0.001

SNAP29 (UniProt O95721)
inactive: erlotinib -0.047 | [1] -0.058 | [2] 0.027 | [3] -0.04 | [4] -0.007 | [5] -0.022 | [6] 0.036 | [7] -0.029 | [8] -0.018 | IRAK-1-4 Inhibitor I 0.009

SMC2 (UniProt O95347)
inactive: erlotinib -0.001 | [1] -0.011 | [2] -0.011 | [3] 0.001 | [4] 0.012 | [5] 0.013 | [6] -0.036 | [7] 0.003 | [8] -0.008 | IRAK-1-4 Inhibitor I -0.019

SNRNP200 (UniProt O75643)
inactive: erlotinib 0.003 | [1] 0.071 | [2] -0.009 | [3] 0.009 | [4] -0.007 | [5] -0.024 | [6] -0.022 | [7] -0.005 | [8] 0.009 | IRAK-1-4 Inhibitor I -0.023

SNCA (UniProt P37840)
inactive: erlotinib -0.265 | [1] -0.037 | [2] 0.098 | [3] 0.025 | [4] -0.147 | [5] -0.02 | [6] 0.044 | [7] -0.056 | [8] -0.085 | IRAK-1-4 Inhibitor I 0.019

SNRPF (UniProt P62306)
inactive: erlotinib -0.029 | [1] -0.07 | [2] 0.081 | [3] -0.017 | [4] -0.065 | [5] 0.028 | [6] -0.034 | [7] -0.018 | [8] 0.001 | IRAK-1-4 Inhibitor I 0.007

SMG1 (UniProt Q96Q15)
inactive: erlotinib -0.004 | [1] -0.031 | [2] -0.046 | [3] 0.009 | [4] 0.029 | [5] -0.022 | [6] -0.072 | [7] -0.036 | [8] 0.024 | IRAK-1-4 Inhibitor I -0.008

SMCR8 (UniProt Q8TEV9)
inactive: erlotinib 0.018 | [1] 0.148 | [2] -0.01 | [3] -0.03 | [4] -0.049 | [5] -0.014 | [6] -0.096 | [7] 0.059 | [8] -0.037 | IRAK-1-4 Inhibitor I 0.01

SNX16 (UniProt P57768)
inactive: erlotinib 0.057 | [1] 0.017 | [2] 0.103 | [3] 0.043 | [4] 0.091 | [5] 0.019 | [6] 0.027 | [7] -0.008 | [8] 0.019 | IRAK-1-4 Inhibitor I 0.058

SNRNP40 (UniProt Q96DI7)
inactive: erlotinib 0.025 | [1] 0.046 | [2] -0.03 | [3] -0.031 | [4] -0.031 | [5] 0.009 | [6] 0.011 | [7] 0.02 | [8] -0.004 | IRAK-1-4 Inhibitor I 0.01

SMN1 (UniProt Q16637)
inactive: erlotinib 0.038 | [1] 0.009 | [2] 0.042 | [3] -0.075 | [4] -0.055 | [5] 0.096 | [6] -0.068 | [7] -0.046 | [8] -0.104 | IRAK-1-4 Inhibitor I 0.02

SMG5 (UniProt Q9UPR3)
inactive: erlotinib -0.037 | [1] -0.038 | [2] 0.028 | [3] -0.008 | [4] -0.012 | [5] -0.074 | [6] -0.035 | [7] -0.004 | [8] -0.043 | IRAK-1-4 Inhibitor I 0.007

SOD1 (UniProt P00441)
inactive: erlotinib 0.003 | [1] 0.111 | [2] -0.008 | [3] 0.01 | [4] -0.016 | [5] -0.054 | [6] 0.013 | [7] 0.053 | [8] 0.035 | IRAK-1-4 Inhibitor I 0.013

SMARCD2 (UniProt Q92925)
inactive: erlotinib -0.031 | [1] 0.031 | [2] -0.038 | [3] 0.049 | [4] 0.001 | [5] -0.023 | [6] -0.019 | [7] -0.014 | [8] -0.028 | IRAK-1-4 Inhibitor I -0.014

SMG7 (UniProt Q92540)
inactive: erlotinib 0.007 | [1] -0.03 | [2] -0.022 | [3] -0.058 | [4] -0.066 | [5] -0.047 | [6] -0.032 | [7] -0.077 | [8] -0.01 | IRAK-1-4 Inhibitor I -0.011

SNRPC (UniProt P09234)
inactive: erlotinib -0.032 | [1] -0.009 | [2] 0.033 | [3] 0.021 | [4] -0.001 | [5] 0 | [6] -0.009 | [7] -0.017 | [8] 0.05 | IRAK-1-4 Inhibitor I 0.005

SNRPN isoform 2 (UniProt P63162)
inactive: erlotinib -0.008 | [1] 0.047 | [2] 0.109 | [3] -0.025 | [6] 0.108 | [7] -0.154 | [8] -0.038

SNX27 (UniProt Q96L92)
inactive: erlotinib 0.024 | [1] 0.022 | [2] -0.012 | [3] -0.019 | [4] 0.001 | [5] -0.03 | [6] -0.038 | [7] -0.018 | [8] -0.009 | IRAK-1-4 Inhibitor I -0.013

SMIM20 isoform 2 (UniProt Q8N5G0)
inactive: erlotinib 0.165 | [1] 0.071 | [2] 0.009 | [3] -0.06 | [4] 0.043 | [6] -0.015

SND1 (UniProt Q7KZF4)
inactive: erlotinib 0.022 | [1] 0.042 | [2] -0.009 | [3] 0.007 | [4] 0.031 | [5] 0.017 | [6] -0.042 | [7] 0.005 | [8] -0.005 | IRAK-1-4 Inhibitor I -0.012

SNRPE (UniProt P62304)
inactive: erlotinib 0.014 | [1] -0.248 | [2] 0.045 | [3] -0.017 | [4] -0.017 | [5] 0.017 | [6] -0.002 | [7] -0.011 | [8] 0.067 | IRAK-1-4 Inhibitor I 0.008

SNAP23 isoform 2 (UniProt O00161)
inactive: erlotinib 0.042 | [1] -0.019 | [2] 0.27 | [3] -0.006 | [5] -0.071 | [6] -0.117 | [7] 0.104 | [8] -0.08 | IRAK-1-4 Inhibitor I 0.057

SNRPD2 (UniProt K7EJB5)
inactive: erlotinib -0.076 | [1] 0 | [2] -0.036 | [3] -0.106 | [5] -0.12 | [6] 0.055 | [7] 0.088 | [8] 0.037 | IRAK-1-4 Inhibitor I -0.03

SNRPB2 (UniProt P08579)
inactive: erlotinib 0.004 | [1] 0.06 | [2] -0.009 | [3] 0.029 | [4] -0.027 | [5] -0.008 | [6] -0.011 | [7] -0.004 | [8] 0.023 | IRAK-1-4 Inhibitor I 0.005

Quoted at random: two entries already listed
SOD1 (UniProt P00441)
inactive: erlotinib 0.003 | [1] 0.111 | [2] -0.008 | [3] 0.01 | [4] -0.016 | [5] -0.054 | [6] 0.013 | [7] 0.053 | [8] 0.035 | IRAK-1-4 Inhibitor I 0.013

SNX27 (UniProt Q96L92)
inactive: erlotinib 0.024 | [1] 0.022 | [2] -0.012 | [3] -0.019 | [4] 0.001 | [5] -0.03 | [6] -0.038 | [7] -0.018 | [8] -0.009 | IRAK-1-4 Inhibitor I -0.013

Remaining list, next part:

SMU1 isoform 2 (UniProt Q2TAY7)
inactive: erlotinib 0.14 | [1] -0.041 | [2] 0.046 | [3] -0.028 | [4] 0.048 | [5] 0.25 | [6] -0.146 | [7] -0.217 | [8] 0.016 | IRAK-1-4 Inhibitor I 0.043

SMARCB1 (UniProt Q12824)
inactive: erlotinib -0.033 | [1] -0.099 | [2] 0.003 | [3] 0.021 | [4] -0.019 | [5] -0.025 | [6] -0.011 | [7] -0.057 | [8] 0.018 | IRAK-1-4 Inhibitor I 0.057
